Here are results for 18 molecules from PubChem BioAssay AID328 (DTP/NCI, 2004).

The assay relates to BDF1 mice, P388 leukemia ip, median survival T/C. The assay is described as follows: NCI In Vivo Anticancer Drug Screen. Data for tumor model P388 Leukemia (intraperitoneal) in B6D2F1 (BDF1) mice. Conditions: T/C endpoint: median survival time, higher T/C = longer survival. A digest of the protocol:
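Mice carrying the transplantable tumour receive compound or vehicle. Survival is followed in each arm, and the treated measure is divided by the vehicle measure.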

Setting [1] is: dose: 400.0 mg/kg/injection, schedule: Q04DX003 (ip), vehicle: saline.
[2] abbreviates: dose: 200.0 mg/kg/injection, schedule: Q04DX003 (ip), vehicle: water.
[3] abbreviates: dose: 12.5 mg/kg/injection, schedule: Q01DX009 (ip), vehicle: saline.
Setting [4] is: dose: 25.0 mg/kg/injection, schedule: Q01DX009 (ip), vehicle: saline.

Molecules are shown by their SMILES. The list is a part of this screen's results and no random one: it is rich in T/C values a quarter to a half above the control, in often repeated tests (any T/C) and in doses without a T/C. Further doses and runs are listed elsewhere. T/C: endpoint of the treated group in % of that of the vehicle group. Some entries give survivors of the animals treated and no T/C: the source holds a T/C of zero for them, seemingly a mark for toxic or unscored doses. Some survivor counts are full or nearly so, which does not show that the dose was tolerated: the source hardly ever lists a survival T/C far under the control, and the zero likely stands for such cases as well. Survivors were counted at the toxicity check, usually on the fifth day, unless a day is given; later deaths do not show. Schedule codes are those of the source, read here as Q, the interval in days (D) or hours (H), X, the number of doses. Some entries were tested several times; the results are listed from low to high. For survival time, the PubChem record calls one and a half times the control and up active, and a quarter to a half above the control has no call in these data; cut-offs in other NCI protocols can differ. Some T/C values carry the count of animals alive at the toxicity check (mostly the fifth day); without a count, all were alive then.

Regarding `CC(=O)Oc1ccc(OC(C)=O)c2c1CC(C)=C(C)C2`, the T/C under setting [1] is 126 % of control [5 of 6 alive].

For the molecule `O=NN(CCCl)C(=O)NCC1CCC(CNC(=O)N(CCCl)N=O)CC1` (configuration not stated), the T/C reads like this: (dose: 11.7 mg/kg/injection, schedule: Q01DX009 (ip), vehicle: other) 136 % of control; (dose: 17.6 mg/kg/injection, schedule: Q01DX009 (ip), vehicle: other) 131 % of control; (dose: 44.0 mg/kg/injection, schedule: Q04DX003 (ip), vehicle: saline sonified) 135 % of control; (dose: 200.0 mg/kg/injection, schedule: Q01DX009 (ip), vehicle: other) 125 % of control; (dose: 400.0 mg/kg/injection, schedule: Q04DX003 (ip), vehicle: saline sonified) 130 % of control. For the same molecule, the survivor count (dose: 400.0 mg/kg/injection, schedule: Q01DX009 (ip), vehicle: other) is recorded as 0 of 6.

On to `CCOC(=O)CCC(C)(C#N)c1ccccc1` (configuration not stated), for which the survivor count (dose: 100.0 mg/kg/injection, schedule: Q01DX009 (ip), vehicle: saline with Tween-80) is 6 of 6 and the survivor count (dose: 200.0 mg/kg/injection, schedule: Q01DX009 (ip), vehicle: saline with Tween-80) is reported as 6 of 6.

With `FC(F)(F)c1nc2cccc3c2n1CCC3`, the survivor count (dose: 200.0 mg/kg/injection, schedule: Q04DX003 (ip), vehicle: saline with Tween-80) is listed as 6 of 6.

`Nc1ccc(Cl)c(Cl)c1`: the survivor count (dose: 200.0 mg/kg/injection, schedule: Q01DX009 (ip), vehicle: saline) was 4 of 6.

`c1ccc2c(c1)C1CCC2c2ccccc21`: for the setting “dose: 100.0 mg/kg/injection, schedule: Q04DX003 (ip), vehicle: saline with Tween-80”, the survivor count is recorded as 6 of 6.

Take `CCCCCCCC(=O)N/N=C(\CO)[C@]1(O)Cc2c(O)c3c(c(O)c2[C@@H](OC2CC(N)C(O)C(C)O2)C1)C(=O)c1c(OC)cccc1C3=O` (some centres not stated): the T/C was 125 % of control (dose: 1.56 mg/kg/injection, schedule: Q01DX009 (ip), vehicle: water) and 139 % of control [5 of 6 alive] (dose: 25.0 mg/kg/injection, schedule: Q01DX009 (ip), vehicle: water). Besides, the survivor count (dose: 50.0 mg/kg/injection, schedule: Q01DX009 (ip), vehicle: water) was 6 of 6.

`N=C(N)c1nn(C2OC(CO)C(O)C2O)c2ncnc(N)c12` (configuration not stated): the T/C reads like this: (dose: 20.0 mg/kg/injection, schedule: Q04DX003 (ip), vehicle: saline) 131 % of control; (dose: 40.0 mg/kg/injection, schedule: Q01DX009 (ip), vehicle: saline, evaluated on day 22) 133 % of control [5 of 6 alive]; (dose: 40.0 mg/kg/injection, schedule: Q01DX009 (ip), vehicle: saline, evaluated on day 30) 125 % of control; (dose: 40.0 mg/kg/injection, schedule: Q04DX003 (ip), vehicle: saline) 127 % of control; (dose: 80.0 mg/kg/injection, schedule: Q04DX003 (ip), vehicle: saline) 127 % of control. Further, where the note is “dose: 60.0 mg/kg/injection, schedule: Q01DX009 (ip), vehicle: saline”, the survivor count is 2 of 6.

With `O=C1CN(c2ccccc2)CC(=O)N2CCCN12`, the survivor count (dose: 100.0 mg/kg/injection, schedule: Q01DX005 (ip), vehicle: saline with Tween-80) is given as 5 of 5.

Regarding `Cc1c(N)ncc2ccccc12`, the survivor count runs as follows: (dose: 200.0 mg/kg/injection, schedule: Q04DX003 (ip), vehicle: saline) 3 of 6; under setting [1], 0 of 6.

`CN(C)Cc1cccc(N)c1`: the survivor count under setting [2] was 2 of 6.

In the case of `Nc1nc([Se])c2ncn(C3OC(CO)C(O)C3O)c2n1` (configuration not stated), the T/C is 129 % of control (dose: 1.0 mg/kg/injection, schedule: Q01DX009 (ip), vehicle: saline); 136 % of control (dose: 2.0 mg/kg/injection, schedule: Q01DX009 (ip), vehicle: saline); 125 % of control (dose: 4.0 mg/kg/injection, schedule: Q01DX009 (ip), vehicle: saline); 138 % of control (dose: 8.0 mg/kg/injection, schedule: Q01DX009 (ip), vehicle: saline); 138 % of control (dose: 16.0 mg/kg/injection, schedule: Q01DX009 (ip), vehicle: saline). Also, the survivor count (dose: 64.0 mg/kg/injection, schedule: Q01DX009 (ip), vehicle: saline) is recorded as 5 of 6.

On to `O=C(NO)c1ccc([N+](=O)[O-])cc1`, for which the T/C (dose: 400.0 mg/kg/injection, schedule: Q01DX010 (ip), vehicle: water) was 127 and 136 % of control. The survivor count is, setting by setting: (dose: 530.0 mg/kg/injection, schedule: Q01DX010 (ip), vehicle: water) 5 of 6; (dose: 800.0 mg/kg/injection, schedule: Q01DX010 (ip), vehicle: water) 0 of 6.

In the case of `OC(C#CC(O)c1ccccc1)c1ccccc1` (configuration not stated), under setting [1], the survivor count was 5 of 6.

Consider `Nc1ncn(C2CC(O)C(CO)O2)c(=O)n1` (configuration not stated), for which the T/C runs as follows: (dose: 0.05 mg/kg/injection, schedule: Q01DX009 (ip), vehicle: Klucel (hydroxypropylcellulose) (HPC)) 138 % of control; (dose: 0.1 mg/kg/injection, schedule: Q01DX009 (ip), vehicle: Klucel (hydroxypropylcellulose) (HPC)) 138 % of control; (dose: 0.1 mg/kg/injection, schedule: Q01DX009 (ip), vehicle: saline) 137 % of control [5 of 6 alive]; (dose: 0.2 mg/kg/injection, schedule: Q01DX009 (ip), vehicle: saline) 134 % of control [4 of 6 alive]; (dose: 25.0 mg/kg/injection, schedule: Q04DX003 (ip), vehicle: saline) 140 % of control. In addition, the survivor count runs as follows: (dose: 1.6 mg/kg/injection, schedule: Q01DX009 (ip), vehicle: Klucel (hydroxypropylcellulose) (HPC)) 6 of 6; (dose: 6.25 mg/kg/injection, schedule: Q01DX009 (ip), vehicle: saline) 6 of 6; under setting [3], 6 of 6; under setting [4], 6 of 6.

As for `Cc1ccc(NCCN(C)C)c2c(=O)c3ccccc3sc12`, the T/C (dose: 29.0 mg/kg/injection, schedule: Q04DX003 (ip), vehicle: saline) is 140 % of control; the T/C (dose: 45.0 mg/kg/injection, schedule: Q04DX003 (ip), vehicle: saline) was 130 % of control; the T/C (dose: 66.0 mg/kg/injection, schedule: Q04DX003 (ip), vehicle: saline) is 131 and 140 % of control. Moreover, the survivor count by setting is: (dose: 150.0 mg/kg/injection, schedule: Q04DX003 (ip), vehicle: saline) 6 of 6; (dose: 400.0 mg/kg/injection, schedule: Q04DX003 (ip), vehicle: alcohol) 1 of 6.

In the case of `N#Cc1nc2ccccc2nc1C#N`, the survivor count runs as follows: under setting [3], 6 of 6; (dose: 50.0 mg/kg/injection, schedule: Q01DX009 (ip), vehicle: Klucel (hydroxypropylcellulose) (HPC)) 4 of 6; (dose: 75.0 mg/kg/injection, schedule: Q01DX009 (ip), vehicle: Klucel (hydroxypropylcellulose) (HPC)) 0 of 6 and 5 of 6; (dose: 115.0 mg/kg/injection, schedule: Q01DX009 (ip), vehicle: Klucel (hydroxypropylcellulose) (HPC)) 0 of 6; (dose: 170.0 mg/kg/injection, schedule: Q01DX009 (ip), vehicle: Klucel (hydroxypropylcellulose) (HPC)) 0 of 6. In addition, the T/C was 127 % of control under setting [4] and 138 % of control (dose: 50.0 mg/kg/injection, schedule: Q01DX009 (ip), vehicle: saline).

Regarding `CC1CN(Cc2cccc(C#N)c2)CC(C)N1` (configuration not stated), the survivor count under setting [2] was 2 of 6.
